Reference: the supplement of paper PMC12067093, “Discovery and optimisation of a covalent ligand for TRIM25 and its application to targeted protein ubiquitination” (Chemical Science, 2025)
The other results are listed elsewhere or left out.

The chains behind the UniProt entries cited, without tags or fusion partners. Where a name states a change or a piece, a line headed by the entry shows the natural chain unless it says otherwise.
UniProt P36551: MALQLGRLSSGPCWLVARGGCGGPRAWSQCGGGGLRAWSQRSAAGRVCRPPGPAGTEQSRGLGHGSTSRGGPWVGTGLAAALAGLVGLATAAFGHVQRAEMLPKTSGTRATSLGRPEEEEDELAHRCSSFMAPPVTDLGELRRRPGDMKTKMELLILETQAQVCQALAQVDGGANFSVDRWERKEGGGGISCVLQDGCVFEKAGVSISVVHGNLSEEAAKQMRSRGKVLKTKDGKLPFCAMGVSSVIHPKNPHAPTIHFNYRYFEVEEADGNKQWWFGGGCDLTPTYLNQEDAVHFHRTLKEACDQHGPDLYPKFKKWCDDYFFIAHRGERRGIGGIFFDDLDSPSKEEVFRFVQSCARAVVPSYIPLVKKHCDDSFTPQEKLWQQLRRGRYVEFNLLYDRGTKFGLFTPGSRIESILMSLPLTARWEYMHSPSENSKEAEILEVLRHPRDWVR
UniProt P41240: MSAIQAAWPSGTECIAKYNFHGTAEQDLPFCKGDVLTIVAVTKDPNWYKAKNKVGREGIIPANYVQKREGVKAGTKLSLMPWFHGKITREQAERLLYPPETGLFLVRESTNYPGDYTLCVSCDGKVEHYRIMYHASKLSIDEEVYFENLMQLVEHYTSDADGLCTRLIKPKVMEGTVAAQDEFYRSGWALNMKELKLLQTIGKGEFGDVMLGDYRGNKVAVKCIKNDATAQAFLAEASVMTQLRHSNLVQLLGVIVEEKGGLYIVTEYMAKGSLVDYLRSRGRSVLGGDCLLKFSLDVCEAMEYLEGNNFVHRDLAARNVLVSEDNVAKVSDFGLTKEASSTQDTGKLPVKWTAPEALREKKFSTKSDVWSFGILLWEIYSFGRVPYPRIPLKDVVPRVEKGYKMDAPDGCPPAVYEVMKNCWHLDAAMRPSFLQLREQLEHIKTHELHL
UniProt P50238: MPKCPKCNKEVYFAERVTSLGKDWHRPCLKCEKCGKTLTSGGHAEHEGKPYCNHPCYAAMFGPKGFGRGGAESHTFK
UniProt Q8NI60: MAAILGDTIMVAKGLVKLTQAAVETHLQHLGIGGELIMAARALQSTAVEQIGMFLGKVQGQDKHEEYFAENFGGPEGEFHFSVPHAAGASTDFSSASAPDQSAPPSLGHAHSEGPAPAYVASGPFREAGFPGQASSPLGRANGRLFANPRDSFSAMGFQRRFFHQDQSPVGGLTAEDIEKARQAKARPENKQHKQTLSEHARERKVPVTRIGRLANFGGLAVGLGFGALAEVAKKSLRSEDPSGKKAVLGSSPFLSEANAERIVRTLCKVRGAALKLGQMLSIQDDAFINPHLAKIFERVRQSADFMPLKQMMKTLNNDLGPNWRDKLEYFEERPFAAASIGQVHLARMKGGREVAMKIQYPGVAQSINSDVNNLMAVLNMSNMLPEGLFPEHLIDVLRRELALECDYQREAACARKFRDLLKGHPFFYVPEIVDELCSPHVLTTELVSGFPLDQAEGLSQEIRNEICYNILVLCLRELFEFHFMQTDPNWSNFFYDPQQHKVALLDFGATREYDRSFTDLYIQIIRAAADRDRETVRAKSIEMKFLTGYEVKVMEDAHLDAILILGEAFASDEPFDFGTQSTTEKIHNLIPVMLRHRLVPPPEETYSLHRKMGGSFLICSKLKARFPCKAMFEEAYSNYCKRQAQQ
UniProt Q9P2I0: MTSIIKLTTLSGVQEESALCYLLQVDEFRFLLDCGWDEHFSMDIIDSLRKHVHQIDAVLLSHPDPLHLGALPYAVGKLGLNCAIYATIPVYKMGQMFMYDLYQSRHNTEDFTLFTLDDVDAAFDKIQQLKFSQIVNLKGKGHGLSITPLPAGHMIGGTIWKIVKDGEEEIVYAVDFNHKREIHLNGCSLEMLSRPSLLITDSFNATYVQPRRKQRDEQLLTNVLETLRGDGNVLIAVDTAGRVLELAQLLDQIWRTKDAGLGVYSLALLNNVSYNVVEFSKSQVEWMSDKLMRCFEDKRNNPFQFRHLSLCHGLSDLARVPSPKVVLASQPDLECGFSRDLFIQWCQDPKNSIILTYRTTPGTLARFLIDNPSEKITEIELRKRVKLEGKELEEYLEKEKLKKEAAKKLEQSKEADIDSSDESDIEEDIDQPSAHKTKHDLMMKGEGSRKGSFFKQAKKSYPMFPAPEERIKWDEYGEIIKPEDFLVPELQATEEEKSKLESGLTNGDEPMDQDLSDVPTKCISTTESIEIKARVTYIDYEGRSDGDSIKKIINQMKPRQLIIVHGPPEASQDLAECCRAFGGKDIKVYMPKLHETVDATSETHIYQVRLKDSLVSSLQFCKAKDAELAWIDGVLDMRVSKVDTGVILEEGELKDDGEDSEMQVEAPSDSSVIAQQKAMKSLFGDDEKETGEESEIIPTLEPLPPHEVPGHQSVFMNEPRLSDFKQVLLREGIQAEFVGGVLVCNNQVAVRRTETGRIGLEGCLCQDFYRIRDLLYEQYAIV
UniProt Q96HD1: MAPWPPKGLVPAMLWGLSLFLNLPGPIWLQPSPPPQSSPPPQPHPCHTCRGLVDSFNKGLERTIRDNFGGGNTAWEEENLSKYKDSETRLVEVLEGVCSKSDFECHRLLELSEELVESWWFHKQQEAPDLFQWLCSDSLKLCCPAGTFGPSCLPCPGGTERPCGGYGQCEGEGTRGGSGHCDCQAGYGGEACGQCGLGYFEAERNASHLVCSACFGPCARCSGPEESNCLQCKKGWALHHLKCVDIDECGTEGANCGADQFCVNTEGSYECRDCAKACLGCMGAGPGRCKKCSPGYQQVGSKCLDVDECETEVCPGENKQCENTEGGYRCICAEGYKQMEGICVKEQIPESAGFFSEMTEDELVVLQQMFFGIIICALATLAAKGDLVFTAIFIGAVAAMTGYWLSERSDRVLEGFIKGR
UniProt Q9BR76, whole entry, looked up: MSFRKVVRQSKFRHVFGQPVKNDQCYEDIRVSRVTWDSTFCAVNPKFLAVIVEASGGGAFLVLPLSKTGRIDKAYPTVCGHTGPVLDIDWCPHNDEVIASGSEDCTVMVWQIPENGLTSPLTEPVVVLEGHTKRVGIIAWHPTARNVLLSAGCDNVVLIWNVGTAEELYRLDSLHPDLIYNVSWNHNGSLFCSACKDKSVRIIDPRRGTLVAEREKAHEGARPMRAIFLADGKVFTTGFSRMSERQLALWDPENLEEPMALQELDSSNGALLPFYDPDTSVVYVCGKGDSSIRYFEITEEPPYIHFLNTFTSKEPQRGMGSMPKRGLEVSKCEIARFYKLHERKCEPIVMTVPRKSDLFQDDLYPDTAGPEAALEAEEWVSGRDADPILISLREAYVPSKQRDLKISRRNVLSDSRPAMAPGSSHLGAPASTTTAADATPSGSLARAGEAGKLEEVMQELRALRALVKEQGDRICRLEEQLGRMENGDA
UniProt P14384: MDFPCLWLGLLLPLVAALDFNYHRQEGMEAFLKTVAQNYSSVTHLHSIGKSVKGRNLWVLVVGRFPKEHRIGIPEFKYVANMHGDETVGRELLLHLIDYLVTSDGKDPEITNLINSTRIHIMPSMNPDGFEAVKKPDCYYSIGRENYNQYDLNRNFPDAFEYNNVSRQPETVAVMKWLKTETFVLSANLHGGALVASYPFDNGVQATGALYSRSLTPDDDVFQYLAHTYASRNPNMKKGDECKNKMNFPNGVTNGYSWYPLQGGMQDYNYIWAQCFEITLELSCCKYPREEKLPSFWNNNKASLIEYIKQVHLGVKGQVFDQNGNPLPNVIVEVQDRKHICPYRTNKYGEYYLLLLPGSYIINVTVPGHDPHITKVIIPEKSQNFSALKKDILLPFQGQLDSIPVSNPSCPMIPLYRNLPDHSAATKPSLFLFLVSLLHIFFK
UniProt P48730: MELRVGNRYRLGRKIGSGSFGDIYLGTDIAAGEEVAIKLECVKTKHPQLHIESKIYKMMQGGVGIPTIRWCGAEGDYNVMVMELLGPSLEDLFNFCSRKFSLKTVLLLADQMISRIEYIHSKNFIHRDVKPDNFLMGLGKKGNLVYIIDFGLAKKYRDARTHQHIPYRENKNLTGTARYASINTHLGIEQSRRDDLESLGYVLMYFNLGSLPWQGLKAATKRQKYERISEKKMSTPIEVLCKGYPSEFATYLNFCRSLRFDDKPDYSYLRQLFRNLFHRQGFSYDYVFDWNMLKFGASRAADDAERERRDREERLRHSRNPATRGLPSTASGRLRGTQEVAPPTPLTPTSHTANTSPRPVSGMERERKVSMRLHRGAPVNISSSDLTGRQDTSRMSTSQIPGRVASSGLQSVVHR
UniProt Q9Y5B0: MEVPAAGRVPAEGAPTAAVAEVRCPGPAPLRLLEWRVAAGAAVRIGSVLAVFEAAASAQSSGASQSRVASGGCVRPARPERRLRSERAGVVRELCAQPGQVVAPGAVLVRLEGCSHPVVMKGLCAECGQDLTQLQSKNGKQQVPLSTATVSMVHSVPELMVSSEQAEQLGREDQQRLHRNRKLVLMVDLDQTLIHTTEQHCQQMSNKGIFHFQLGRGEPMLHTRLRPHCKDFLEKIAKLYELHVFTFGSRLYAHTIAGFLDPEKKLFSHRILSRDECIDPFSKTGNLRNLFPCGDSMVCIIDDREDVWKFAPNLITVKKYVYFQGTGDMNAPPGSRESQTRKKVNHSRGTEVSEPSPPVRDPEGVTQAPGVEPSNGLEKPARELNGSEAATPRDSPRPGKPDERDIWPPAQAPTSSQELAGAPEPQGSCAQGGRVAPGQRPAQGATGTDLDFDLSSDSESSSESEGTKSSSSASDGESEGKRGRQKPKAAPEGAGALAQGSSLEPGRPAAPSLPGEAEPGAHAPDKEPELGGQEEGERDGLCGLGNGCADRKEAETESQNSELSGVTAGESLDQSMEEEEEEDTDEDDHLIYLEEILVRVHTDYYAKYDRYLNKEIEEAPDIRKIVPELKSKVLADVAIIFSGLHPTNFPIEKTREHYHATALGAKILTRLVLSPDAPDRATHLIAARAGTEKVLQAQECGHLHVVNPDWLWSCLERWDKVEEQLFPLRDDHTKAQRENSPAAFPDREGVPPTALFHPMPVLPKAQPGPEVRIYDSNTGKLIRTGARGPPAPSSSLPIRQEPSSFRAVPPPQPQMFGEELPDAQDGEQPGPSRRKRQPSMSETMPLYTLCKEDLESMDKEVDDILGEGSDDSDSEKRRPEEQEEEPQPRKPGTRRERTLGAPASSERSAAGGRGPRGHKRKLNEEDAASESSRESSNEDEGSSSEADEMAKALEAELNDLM
UniProt P23786: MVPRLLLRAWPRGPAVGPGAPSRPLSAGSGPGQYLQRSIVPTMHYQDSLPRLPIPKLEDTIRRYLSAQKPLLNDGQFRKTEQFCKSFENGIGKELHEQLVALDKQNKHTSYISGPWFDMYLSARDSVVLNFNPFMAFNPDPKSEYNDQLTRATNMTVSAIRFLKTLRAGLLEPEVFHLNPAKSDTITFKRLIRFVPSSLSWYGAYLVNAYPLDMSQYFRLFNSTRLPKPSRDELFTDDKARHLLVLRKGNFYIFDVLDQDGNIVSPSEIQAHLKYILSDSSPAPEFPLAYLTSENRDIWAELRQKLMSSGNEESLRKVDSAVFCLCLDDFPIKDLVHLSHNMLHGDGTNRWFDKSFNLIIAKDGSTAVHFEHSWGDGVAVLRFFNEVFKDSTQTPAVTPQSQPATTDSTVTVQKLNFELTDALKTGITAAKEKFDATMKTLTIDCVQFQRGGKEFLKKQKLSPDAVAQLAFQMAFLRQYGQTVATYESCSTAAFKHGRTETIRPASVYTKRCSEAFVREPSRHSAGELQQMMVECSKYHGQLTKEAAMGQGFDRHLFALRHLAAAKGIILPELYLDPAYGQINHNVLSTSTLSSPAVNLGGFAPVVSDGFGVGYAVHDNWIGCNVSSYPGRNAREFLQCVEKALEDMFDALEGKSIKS
UniProt Q6UXH1: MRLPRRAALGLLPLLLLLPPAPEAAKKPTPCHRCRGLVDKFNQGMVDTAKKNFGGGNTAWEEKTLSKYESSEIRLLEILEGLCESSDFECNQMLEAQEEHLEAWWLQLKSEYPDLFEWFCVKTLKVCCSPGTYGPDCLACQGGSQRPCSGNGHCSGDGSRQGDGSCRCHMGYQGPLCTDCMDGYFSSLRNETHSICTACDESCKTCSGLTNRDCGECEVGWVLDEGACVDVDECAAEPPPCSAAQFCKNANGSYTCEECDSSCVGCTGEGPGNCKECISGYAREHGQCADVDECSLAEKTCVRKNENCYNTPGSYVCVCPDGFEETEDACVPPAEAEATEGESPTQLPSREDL
UniProt Q05048: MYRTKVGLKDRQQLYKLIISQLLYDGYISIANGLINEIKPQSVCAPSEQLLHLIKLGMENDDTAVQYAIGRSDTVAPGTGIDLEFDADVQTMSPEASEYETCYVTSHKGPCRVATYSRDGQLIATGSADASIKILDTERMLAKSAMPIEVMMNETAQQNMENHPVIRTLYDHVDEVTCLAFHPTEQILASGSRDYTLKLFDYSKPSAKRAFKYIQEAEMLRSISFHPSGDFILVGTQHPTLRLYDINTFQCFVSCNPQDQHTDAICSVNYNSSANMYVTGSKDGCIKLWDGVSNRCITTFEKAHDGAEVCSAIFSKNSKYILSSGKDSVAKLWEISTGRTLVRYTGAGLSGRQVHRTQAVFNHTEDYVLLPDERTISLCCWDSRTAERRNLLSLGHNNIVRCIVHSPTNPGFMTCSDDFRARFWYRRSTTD

Compound: CC1Cc2ccccc2N1C(=O)C1CCCN(C1)C(=O)CCl (mixture of isomers) [TRIM25 ligand 11 (diastereomer mixture)]
Experiment: probe-labelled cysteine peptide fold change vs DMSO (competition) (log2 fold change); higher = less target engagement (more negative = stronger competition)
Settings: THP-1, incubation time: 4 h
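Note: competitive chemoproteomic profiling in live THP-1 cells with an iodoacetamide desthiobiotin (IA-DTB) probe, comparing probe-labelled peptide intensities in compound-treated cells against DMSO-treated controls.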

Target | probe-labelled cysteine peptide fold change (10 µM) | probe-labelled cysteine peptide fold change (50 µM)
CPT1A_P50416_608_SCTTESCDFVR (UniProt P50416) | 0.121 | 0.357
CPOX_P36551_304_EACDQHGPDLYPK (UniProt P36551) | -0.0539 | -0.0357
CSK_P41240_122_ESTNYPGDYTLCVSCDGK (UniProt P41240) | 0.0244 | 0.118
CRYBG1_Q9Y4K1_503_GCVLPVSR (UniProt Q9Y4K1) | -0.0878 | -0.28
CRIP1_P50238_52+56_PYCNHPCYAAMFGPK (UniProt P50238) | -0.413 | -0.42
COQ8A_Q8NI60_620_MGGSFLICSK (UniProt Q8NI60) | 0.135 | -0.00226
CORO7_P57737_790_TECDVREVELMR (UniProt P57737) | -0.505 | -0.274
CORO1C_Q9ULV4_456_DTICNQDER (UniProt Q9ULV4) | 0.0103 | -0.044
CPSF3_Q9UKF6_345_ELFESWCTDK (UniProt Q9UKF6) | 0.152 | 0.192
CREG1_O75629_147_HGFDPQSPLCVHIMLSGTVTK (UniProt O75629) | 0.0583 | 0.443
CPOX_P36551_281_QWWFGGGCDLTPTYLNQEDAVHFHR (UniProt P36551) | 0.057 | 0.0764
CRABP1_P29762_96_IHCTQTLLEGDGPK (UniProt P29762) | 0.099 | -0.0749
CORO1C_Q9ULV4_283_NMQEPIALHEMDTSNGVLLPFYDPDTSIIYLCGK (UniProt Q9ULV4) | -0.0943 | 0.0583
CPSF2_Q9P2I0_20_LTTLSGVQEESALCYLLQVDEFR (UniProt Q9P2I0) | -0.0527 | -0.0601
CPOX_P36551_373_HCDDSFTPQEK (UniProt P36551) | -0.0342 | 0.116
CRELD1_Q96HD1_105_SDFECHR (UniProt Q96HD1) | 0.122 | 0.424
CORO1B_Q9BR76_41_VTWDSTFCAVNPK (UniProt Q9BR76) | -0.0723 | 0.0234
CRELD1_Q96HD1_281_ACLGCMGAGPGR (UniProt Q96HD1) | -0.0156 | -0.024
CPM_P14384_138_KPDCYYSIGR (UniProt P14384) | -0.00986 | -0.0592
CORO1A_P31146_332_RGLEVNKCEIAR (UniProt P31146) | -0.603 | -0.342

Target | probe-labelled cysteine peptide fold change (10 µM) | probe-labelled cysteine peptide fold change (50 µM)
CTNND1_O60716_533_HIEWESVLTNTAGCLR (UniProt O60716) | -0.0166 | -0.228
CTDSPL_O15194_197_ESCVFHR (UniProt O15194) | 0.071 | 0.134
COQ8B_Q96D53_508_AHIACR (UniProt Q96D53) | -0.0733 | 0.0572
CPSF2_Q9P2I0_34_FLLDCGWDEHFSMDIIDSLRK (UniProt Q9P2I0) | 0.156 | 0.0034
CSNK1D_P48730_241_KMSTPIEVLCK (UniProt P48730) | -0.256 | -0.358
CPM_P14384_341_KHICPYR (UniProt P14384) | -0.101 | -0.119
CPSF7_Q8N684_399_DCLHGIEAK (UniProt Q8N684) | -0.0325 | -0.0369
CTBP1_Q13363_312_DAPNLICTPHAAWYSEQASIEMR (UniProt Q13363) | -0.262 | -0.109
CTDP1_Q9Y5B0_114_LEGCSHPVVMK (UniProt Q9Y5B0) | -0.0347 | 0.14
CPNE1_Q99829_30_SDPLCVLLQDVGGGSWAELGR (UniProt Q99829) | 0.0249 | -0.135
CSNK1A1_P48729_249_MSTPVEVLCK (UniProt P48729) | -0.305 | -0.401
CPT2_P23786_445_TLTIDCVQFQR (UniProt P23786) | 0.00735 | -0.107
CSK_P41240_31_YNFHGTAEQDLPFCK (UniProt P41240) | -0.0157 | -0.122
CPD_O75976_720_ENSQMFQGRPCK (UniProt O75976) | -0.0667 | -0.0432
CPNE3_O75131_249_SSPVEFECINEK (UniProt O75131) | -0.0883 | -0.107
CRELD2_Q6UXH1_294_EHGQCADVDECSLAEK (UniProt Q6UXH1) | 0.0157 | -0.108
CSTF1_Q05048_310_AHDGAEVCSAIFSK (UniProt Q05048) | -0.0154 | 0.0736
CROT_Q9UKG9_584_SCPETDAEK (UniProt Q9UKG9) | 0.149 | 0.196
COX6B1_P14854_54_GGDISVCEWYQR (UniProt P14854) | -0.188 | -0.269
CRACR2A_Q9BSW2_220_NELECALK (UniProt Q9BSW2) | -0.0901 | 0.0608
